No constants are given. Whether binding was seen depends on the method and setting. In cells and extracts the contact can be indirect. Some results given as binding are weak or reduced against the parent protein; the word gives no strength.
T1: GGH domain 1 (signal domain, amino acids 1-24) (UniProt Q92820)
T1 sequence: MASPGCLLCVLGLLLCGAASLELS

Amino acid sequences for entries named in this document (tags omitted).
UniProt Q15717: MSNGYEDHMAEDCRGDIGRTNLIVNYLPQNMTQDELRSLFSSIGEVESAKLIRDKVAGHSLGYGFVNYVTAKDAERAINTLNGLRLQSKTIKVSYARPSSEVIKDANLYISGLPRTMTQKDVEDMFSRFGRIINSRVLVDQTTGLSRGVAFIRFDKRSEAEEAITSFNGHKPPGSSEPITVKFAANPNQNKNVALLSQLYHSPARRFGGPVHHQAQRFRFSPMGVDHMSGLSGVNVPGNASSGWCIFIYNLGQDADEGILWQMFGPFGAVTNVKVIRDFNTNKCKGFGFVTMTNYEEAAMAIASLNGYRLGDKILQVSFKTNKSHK

T2: GGH domain 2 (peptidase domain, amino acids 25-318) (UniProt Q92820)
T2 sequence: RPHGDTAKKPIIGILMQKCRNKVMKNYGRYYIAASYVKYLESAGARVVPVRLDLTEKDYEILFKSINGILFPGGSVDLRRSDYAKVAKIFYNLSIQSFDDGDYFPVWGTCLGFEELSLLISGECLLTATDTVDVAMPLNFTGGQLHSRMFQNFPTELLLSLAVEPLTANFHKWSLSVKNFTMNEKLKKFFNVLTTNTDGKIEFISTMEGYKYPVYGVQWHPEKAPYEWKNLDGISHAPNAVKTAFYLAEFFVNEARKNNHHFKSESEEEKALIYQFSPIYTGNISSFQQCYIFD


Assays:
Experiment in all cases: co-IP; 293T cells with exogenously expressed GGH (or GGH domain 1 or 2) and HuR, reciprocal precipitation, NP40 lysis buffer, Western blot; full-length GGH also with or without RNase A (pull-down of HuR reduced after RNase A)
[1] = molecular target: T1, GGH domain 1 (signal domain, amino acids 1-24)
[2] = molecular target: T2, GGH domain 2 (peptidase domain, amino acids 25-318)
[3] = molecular target: HuR, exogenously expressed in 293T cells (UniProt Q15717)

binding [1]	binding [2]	binding [3]	Molecule
binds	binds	–	HuR, exogenously expressed in 293T cells (from UniProt Q15717 1-326)
–	–	binds	MASPGCLLCVLGLLLCGAASLELS (domain or fragment, UniProt Q92820 1-24) [GGH domain 1 (signal domain, amino acids 1-24)]
–	–	binds	GGH domain 2 (peptidase domain, amino acids 25-318) (domain or fragment, UniProt Q92820 25-318) RPHGDTAKKPIIGILMQKCRNKVMKNYGRYYIAASYVKYLESAGARVVPVRLDLTEKDYEILFKSINGILFPGGSVDLRRSDYAKVAKIFYNLSIQSFDDGDYFPVWGTCLGFEELSLLISGECLLTATDTVDVAMPLNFTGGQLHSRMFQNFPTELLLSLAVEPLTANFHKWSLSVKNFTMNEKLKKFFNVLTTNTDGKIEFISTMEGYKYPVYGVQWHPEKAPYEWKNLDGISHAPNAVKTAFYLAEFFVNEARKNNHHFKSESEEEKALIYQFSPIYTGNISSFQQCYIFD

Source: paper PMC12622440
